# Reference: the supplement of paper PMC8728848
# The list shows a part of the results.
# B1: TAL6-4LysM (Trichoderma atroviride) (protein)
# chain: AADSIPSISPTGIITPTPTQSGMVSNCNKFYDVHSNDGCSAIASSQHVDLSSLYKWNPAIKTDCSGLQASVYVCIGILTTSMSTTSKLPTTTSKPSTTSKPPTGITTPTPTQSGMVKNCNKFYDVHSGDGCSAIASSQKVNLSSFYLWNPAVKTDCSGLQASVFVCIGTLTTSMSTTTSKLPTTTSKPSTTSKPPTGIITPTPTQNGMVKNCNKFYDVHSGDGCSAIASSQKVNLSSFYLWNPAVKTDCSGLQASVFVCVGTATTTTAAGITTPTPTQSGMVSGCNKFYDVHAGDGCSAIASSQKIALSSLYKWNPAVKTDCSGLQASVYICIGVGNAAAARVTGALEQKLISEEDLNSAVDHHHHHH
# Columns and labels:
# Experiment in all cases: glycan array binding signal (z-score within array); higher = stronger binding
# Conditions in all cases: glycan notation: IUPAC condensed, linker removed
# [1] = target: Fuc(a1-2)Gal(b1-4)[Fuc(a1-3)]GlcNAc(b1-2)Man(a1-3)[Fuc(a1-2)Gal(b1-4)[Fuc(a1-3)]GlcNAc(b1-2)Man(a1-6)]Man(b1-4)GlcNAc(b1-4)[Fuc(a1-6)]GlcNAc
# In short: (§1)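 Columns mapping to the same glycan were averaged after glycan names were converted to IUPAC-condensed notation. The data come from 3228 arrays in the Consortium for Functional Glycomics database, limited to those with an available protein sequence. Binding is reported as a within-array Z-score averaged across arrays of one protein sequence and across linkers.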
# [2] = target: Fuc(a1-2)Gal(b1-4)[Fuc(a1-3)]GlcNAc(b1-2)[Fuc(a1-2)Gal(b1-4)[Fuc(a1-3)]GlcNAc(b1-4)]Man(a1-3)[Fuc(a1-2)Gal(b1-4)[Fuc(a1-3)]GlcNAc(b1-2)Man(a1-6)]Man(b1-4)GlcNAc(b1-4)GlcNAc
# In short: as §1
# [3] = target: Fuc(a1-2)Gal(b1-4)[Fuc(a1-3)]GlcNAc(b1-3)Gal(b1-4)[Fuc(a1-3)]GlcNAc
# In short: as §1
# [4] = target: Fuc(a1-2)Gal(b1-4)[Fuc(a1-3)]GlcNAc(b1-3)Gal(b1-4)[Fuc(a1-3)]GlcNAc(b1-3)Gal(b1-4)[Fuc(a1-3)]GlcNAc
# In short: as §1
# [5] = target: Fuc(a1-2)Gal(b1-4)[Fuc(a1-3)]GlcNAc(b1-3)GalNAc
# In short: as §1
# [6] = target: Fuc(a1-2)Gal(b1-4)[Fuc(a1-3)]GlcNAc(b1-3)[Neu5Ac(a2-6)Gal(b1-4)GlcNAc(b1-6)]Gal(b1-4)Glc
# In short: as §1
# [7] = target: Fuc(a1-2)Gal3S(b1-4)GlcNAc
# In short: as §1
# [8] = target: Fuc(a1-2)Gal6S(b1-3)GlcNAc
# In short: as §1
# [9] = target: Fuc(a1-2)Gal6S(b1-3)GlcNAc6S
# In short: as §1
# Fuc(a1-2)Gal6S(b1-4)Glc = target: Fuc(a1-2)Gal6S(b1-4)Glc
# In short: as §1
# [10] = target: Fuc(a1-2)Gal6S(b1-4)Glc6S
# In short: as §1
# Fuc(a1-2)[Gal(a1-3)]Gal = target: Fuc(a1-2)[Gal(a1-3)]Gal
# In short: as §1
# [11] = target: Fuc(a1-2)[Gal(a1-3)]Gal(b1-3)GalNAc
# In short: as §1
# [12] = target: Fuc(a1-2)[Gal(a1-3)]Gal(b1-3)GalNAc(b1-3)Gal(a1-4)Gal(b1-4)Glc
# In short: as §1
# [13] = target: Fuc(a1-2)[Gal(a1-3)]Gal(b1-3)GlcNAc
# In short: as §1
# [14] = target: Fuc(a1-2)[Gal(a1-3)]Gal(b1-3)GlcNAc(b1-2)Man(a1-3)[Fuc(a1-2)[Gal(a1-3)]Gal(b1-3)GlcNAc(b1-2)Man(a1-6)]Man(b1-4)GlcNAc(b1-4)GlcNAc
# In short: as §1
# [15] = target: Fuc(a1-2)[Gal(a1-3)]Gal(b1-3)GlcNAc(b1-2)Man(a1-3)[Fuc(a1-2)[Gal(a1-3)]Gal(b1-3)GlcNAc(b1-2)Man(a1-6)]Man(b1-4)GlcNAc(b1-4)[Fuc(a1-6)]GlcNAc
# In short: as §1
# [16] = target: Fuc(a1-2)[Gal(a1-3)]Gal(b1-3)GlcNAc(b1-3)GalNAc
# In short: as §1
# [17] = target: Fuc(a1-2)[Gal(a1-3)]Gal(b1-3)GlcNAc(b1-6)GalNAc
# In short: as §1
# [18] = target: Fuc(a1-2)[Gal(a1-3)]Gal(b1-4)Glc
# In short: as §1
# [19] = target: Fuc(a1-2)[Gal(a1-3)]Gal(b1-4)GlcNAc
# In short: as §1
# [20] = target: Fuc(a1-2)[Gal(a1-3)]Gal(b1-4)GlcNAc(b1-2)Man
# In short: as §1
# [21] = target: Fuc(a1-2)[Gal(a1-3)]Gal(b1-4)GlcNAc(b1-2)Man(a1-3)[Fuc(a1-2)[Gal(a1-3)]Gal(b1-4)GlcNAc(b1-2)Man(a1-6)]Man(b1-4)GlcNAc(b1-4)GlcNAc
# In short: as §1
# [22] = target: Fuc(a1-2)[Gal(a1-3)]Gal(b1-4)GlcNAc(b1-2)Man(a1-3)[Fuc(a1-2)[Gal(a1-3)]Gal(b1-4)GlcNAc(b1-2)Man(a1-6)]Man(b1-4)GlcNAc(b1-4)[Fuc(a1-6)]GlcNAc
# In short: as §1
# [23] = target: Fuc(a1-2)[Gal(a1-3)]Gal(b1-4)GlcNAc(b1-3)GalNAc
# In short: as §1
# [24] = target: Fuc(a1-2)[Gal(a1-3)]Gal(b1-4)GlcNAc(b1-3)[Fuc(a1-2)[Gal(a1-3)]Gal(b1-4)GlcNAc(b1-6)]GalNAc
# In short: as §1
# [25] = target: Fuc(a1-2)[Gal(a1-3)]Gal(b1-4)GlcNAc(b1-6)GalNAc
# In short: as §1
# [26] = target: Fuc(a1-2)[Gal(a1-3)]Gal(b1-4)[Fuc(a1-3)]Glc
# In short: as §1
# [27] = target: Fuc(a1-2)[Gal(a1-3)]Gal(b1-4)[Fuc(a1-3)]GlcNAc
# In short: as §1
# [28] = target: Fuc(a1-2)[Gal(a1-3)]Gal(b1-4)[Fuc(a1-3)]GlcNAc(b1-3)GalNAc
# In short: as §1
# [29] = target: Fuc(a1-2)[Gal(a1-4)]Gal(b1-4)GlcNAc
# In short: as §1
# [30] = target: Fuc(a1-2)[GalNAc(a1-3)]Gal
# In short: as §1
# [31] = target: Fuc(a1-2)[GalNAc(a1-3)]Gal(b1-3)GalNAc(a1-3)[Fuc(a1-2)]Gal(b1-4)GlcNAc
# In short: as §1
# [32] = target: Fuc(a1-2)[GalNAc(a1-3)]Gal(b1-3)GalNAc(b1-3)Gal(a1-4)Gal(b1-4)Glc
# In short: as §1
# [33] = target: Fuc(a1-2)[GalNAc(a1-3)]Gal(b1-3)GlcNAc
# In short: as §1
# [34] = target: Fuc(a1-2)[GalNAc(a1-3)]Gal(b1-3)GlcNAc(b1-2)Man(a1-3)[Fuc(a1-2)[GalNAc(a1-3)]Gal(b1-3)GlcNAc(b1-2)Man(a1-6)]Man(b1-4)GlcNAc(b1-4)GlcNAc
# In short: as §1
# [35] = target: Fuc(a1-2)[GalNAc(a1-3)]Gal(b1-3)GlcNAc(b1-2)Man(a1-3)[Fuc(a1-2)[GalNAc(a1-3)]Gal(b1-3)GlcNAc(b1-2)Man(a1-6)]Man(b1-4)GlcNAc(b1-4)[Fuc(a1-6)]GlcNAc
# In short: as §1
# [36] = target: Fuc(a1-2)[GalNAc(a1-3)]Gal(b1-3)GlcNAc(b1-3)GalNAc
# In short: as §1
binder,measurement,setting,value
B1,glycan array binding signal (z-score),[1],0.778
same,glycan array binding signal (z-score),[2],-1.12
same,glycan array binding signal (z-score),[3],-0.867
same,glycan array binding signal (z-score),[4],0.899
same,glycan array binding signal (z-score),[5],0.753
same,glycan array binding signal (z-score),[6],-0.571
same,glycan array binding signal (z-score),[7],-0.371
same,glycan array binding signal (z-score),[8],-0.214
same,glycan array binding signal (z-score),[9],-0.084
same,glycan array binding signal (z-score),Fuc(a1-2)Gal6S(b1-4)Glc,-0.202
same,glycan array binding signal (z-score),[10],-0.234
same,glycan array binding signal (z-score),Fuc(a1-2)[Gal(a1-3)]Gal,0.228
same,glycan array binding signal (z-score),[11],-0.474
same,glycan array binding signal (z-score),[12],-0.13
same,glycan array binding signal (z-score),[13],-0.6
same,glycan array binding signal (z-score),[14],-0.336
same,glycan array binding signal (z-score),[15],1.16
same,glycan array binding signal (z-score),[16],-1.31
same,glycan array binding signal (z-score),[17],-0.942
same,glycan array binding signal (z-score),[18],1.5
same,glycan array binding signal (z-score),[19],-0.335
same,glycan array binding signal (z-score),[20],-0.251
same,glycan array binding signal (z-score),[21],1.01
same,glycan array binding signal (z-score),[22],-0.859
same,glycan array binding signal (z-score),[23],-1.98
same,glycan array binding signal (z-score),[24],-0.676
same,glycan array binding signal (z-score),[25],0.471
same,glycan array binding signal (z-score),[26],0.037
same,glycan array binding signal (z-score),[27],0.469
same,glycan array binding signal (z-score),[28],-1.81
same,glycan array binding signal (z-score),[29],2.32
same,glycan array binding signal (z-score),[30],0.2
same,glycan array binding signal (z-score),[31],-0.505
same,glycan array binding signal (z-score),[32],0.728
same,glycan array binding signal (z-score),[33],0.026
same,glycan array binding signal (z-score),[34],0.321
same,glycan array binding signal (z-score),[35],-1.4
same,glycan array binding signal (z-score),[36],0.335

# Nothing new here: entries from further up.
binder,measurement,setting,value
B1,glycan array binding signal (z-score),[8],-0.214
same,glycan array binding signal (z-score),[9],-0.084
same,glycan array binding signal (z-score),Fuc(a1-2)Gal6S(b1-4)Glc,-0.202
